Toxoplasma: 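Assay of Toxoplasma gondii numbers, read through their beta-galactosidase reporter with a colour substrate. Tested at 10 µM. Higher reads as fewer parasites (inferred from which compounds were picked for retests). Size under these conditions: about 67,000 compounds, about 260 of them at 50% or above in at least one test.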
ClpP1P2: 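Protease assay of ClpP1P2, read by the AMC dye that it sets free. Target: ClpP1P2, Mycobacterium tuberculosis (UniProt P9WPC5 and UniProt P9WPC3). Concentration: 50 µM. Higher reads as stronger inhibition, judged from the few compounds that gave an IC50. Most other retested compounds had strongly negative values. Of about 69,000 compounds tested this way, about 10 (0.015%) reached 50% or more in at least one test.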
Leishmania in macrophages: 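Cell assay of Leishmania donovani living inside macrophages; the read-out is not stated. Concentration: 30 µM. Direction is inferred from retests: higher values go with stronger inhibition. About 69,000 compounds were tested under these conditions; 1.5% (about 1,000) showed 50% or more at least once.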
T. brucei: 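Whole-parasite assay of Trypanosoma brucei over 72 hours; the read-out is not stated. Compounds at 30 µM. Direction is inferred from retests: higher values go with stronger inhibition. Values scatter widely below zero; nearly all retest evidence comes from the higher of the two concentrations used. Of about 64,000 compounds tested this way, about 940 (1.5%) reached 50% or more in at least one test.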

The chains behind the UniProt entries cited, without tags or fusion partners.
UniProt P9WPC5, whole entry: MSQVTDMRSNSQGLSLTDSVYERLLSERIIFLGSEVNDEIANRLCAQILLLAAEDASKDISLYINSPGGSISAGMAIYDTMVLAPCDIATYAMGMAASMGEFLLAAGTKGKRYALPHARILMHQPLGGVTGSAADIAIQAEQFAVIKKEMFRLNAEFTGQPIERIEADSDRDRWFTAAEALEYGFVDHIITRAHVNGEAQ
UniProt P9WPC3, whole entry partner: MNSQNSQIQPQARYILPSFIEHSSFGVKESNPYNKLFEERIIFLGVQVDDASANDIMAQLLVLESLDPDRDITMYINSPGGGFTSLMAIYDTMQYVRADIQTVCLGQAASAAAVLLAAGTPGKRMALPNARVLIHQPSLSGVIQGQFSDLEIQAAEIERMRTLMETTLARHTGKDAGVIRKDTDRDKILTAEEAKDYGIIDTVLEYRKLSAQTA

The filed quantity is “Percent Effect” (%). How 0% and 100% were set is not recorded. Most values in the screen are low, and negative values occur. Compounds were drawn at random from those tested, without regard to their results. Two or more numbers in one place are separate tests of the same structure; such repeats can differ widely. A dash means the value is not listed here; it may have been measured.

Compound | Toxoplasma | ClpP1P2 | Leishmania in macrophages | T. brucei
CN1CCOC(CNCc2cnc(C(C)(C)C)s2)C1 (centres unmarked) | 8.663 | -6.945 | -3.893 | -8.388
Cc1csc(CCNC(=O)N2CCC(n3cccc3)CC2)n1 | 2.41 | -2.607 | -0.7668 | 0.7043
c1cnc(N2CCCC(c3n[nH]c4ncccc34)C2)nc1 (centres unmarked) | -10.54 | -16.4 | 8.255 & 8.459 | -13.3
Cc1cc(CC(C)NC(=O)Cc2cc(F)ccc2C)[nH]n1 (centres unmarked) | -8.849 | -3.396 | -10.86 | -40.12
COCc1ccc(C(=O)N2CC[C@@](O)(COC)C(C)(C)C2)o1 | 20.18 | -0.6258 | 11.52 | -7.314
Cc1nnc(C[C@@H]2COC[C@H]3CN(C(=O)c4ccco4)C[C@@H]23)o1 | - | -2.066 | - | -
CN(Cc1coc(-c2ccccc2)n1)C1CCCN(c2cccnn2)C1 (centres unmarked) | 14.85 | -14.48 | -3.152 | 26.5
COc1ccccc1S(=O)(=O)Nc1ccc2c(C(=O)O)c[nH]c2c1 | 5.082 | 4.498 | 25.15 | 28.43
O=C(O)C(F)(F)F.[H][C@@]12CCN(Cc3ccc4c(c3)OCO4)C[C@]1([H])O[C@@H](C(=O)NC1CC1)C2 | 2.556 | - | 22.43 | 33.32
N#CCCN(Cc1ccco1)C(=O)COC1CCCCC1 | 0.1079 | -1.748 | -41.39 | -56.58
CCNc1ncc(C(=O)NCCCc2ccncc2)cn1 | -41.57 | -29.31 | 7.787 | -
[H][C@@]12CN(c3ncc(F)cn3)C[C@@]1([H])N(CCN(C)C)C(=O)CO2 | -0.6915 | - | 1.509 | -33.88
Cn1ccnc1CN1CCCN(C(=O)c2ccc(O)nc2)CC1 | -2.365 | -24.66 | 25.73 | -15.42
COc1cccc(CNCC2CCN(CC(C)O)CC2)c1OC (centres unmarked) | 12.65 | -39.9 | -4.893 | -
FC(F)Oc1ccccc1CNCc1cc(Br)c2c(c1)OCO2 | 4.057 | 4.999 | 15.77 | 5.313
Cc1ccccc1C(=O)N1CC[C@@H]2CN(c3ncccn3)CCO[C@@H]2C1 | - | -2.567 | - | -
Cc1ncc2c(n1)CN(CC(=O)NCCOc1ccccc1)CC2 | -3.649 | -12.01 | 9.778 | 9.22
CCS(=O)(=O)NCCN(CCO)C1CCc2ccccc21 (centres unmarked) | -4.777 | -12.6 | -12.47 | -15.84
Cc1cc(C(=O)Nc2n[nH]c(C3CC3)n2)c2c(C)noc2n1 | 12.51 | -5.986 | -5.812 | -
[H][C@@]12CCN(C(=O)COC)C[C@@]1([H])O[C@H](c1nnc(C3CC3)o1)C2 | 4.808 | - | 7.664 | 42.28
CNc1ncc(CN(C)c2nccc(CCC(F)(F)F)n2)cn1 | 8.895 | 8.216 | 13.62 | -13.08
NCC(=O)N1CCCC(c2ccnc(Nc3cnccn3)n2)C1 (centres unmarked) | - | 0.7527 | - | -
[H][C@@]12CN(Cc3cccnc3)C(=O)N1CCN(C1CCOCC1)C2 | -2.851 | - | 21.31 | -1.944
Cc1cc(N2CCc3c(nc(C(C)C)n3C)C2)nc(N)n1 | 9.562 | 1.494 | 17.43 | -10.12
CC(=O)N1CCCN(C(=O)c2ccc(Cn3ccccc3=O)o2)CC1 | 15.87 | 3.06 | -9.917 | -
CN(C)c1ncncc1NC(=O)Cc1c[nH]c2ccc(F)cc12 | -0.05875 | -5.153 | 18.8 | 9.334
CC(C)Oc1ncccc1CNC(=O)c1ccco1 | -1.471 | -5.12 | 3.384 | -25.13
Cc1ccc(CN2CC[C@H]3[C@@H]2CCC(=O)N3CCN2CCCC2)s1 | - | 17.18 | - | -
CCn1nc(C)c2nc(C(C)C)nc(NCCCn3cccn3)c21 | 57.58 | 6.104 | -61.14 | -11.4
[H][C@]12CN(c3ncccn3)CC[C@@]1(O)CCN(S(=O)(=O)N(C)C)C2 | -22.71 | - | 1.217 | -12.35
Cc1cnc(C(=O)N2Cc3ncn(C)c3C(COCC(C)C)C2)cn1 (centres unmarked) | - | -2.421 | - | -
CC(C)c1nccc(CN2CCCC(O)(CN(C)C)C2)n1 (centres unmarked) | -35.88 | 6.854 | -2.098 | -2.317
CC(C(=O)Nc1ccc(N2CCCC2)nc1)n1cncn1 (centres unmarked) | 6.031 | 11.38 | 28.07 | 11.66
[H][C@@]12CCNC[C@]1([H])N(C(=O)C1CCCCC1)C2 | -17.38 | - | 13.96 | -8.842
[H][C@@]12CCCC[C@]1(O)CCN(CC(N)=O)[C@H]2c1ccc2c(c1)OCO2 | 12.49 | - | 19.61 | -42.96
O=C(CSC1=NS(=O)(=O)c2cc(F)ccc2N1)c1ccc(Cl)cc1 | -2.106 | -10.37 | 37.27 | 22.6
Cc1cccc(CN2CCC3(CCCN(C(=O)N(C)C)C3)C2=O)n1 (centres unmarked) | - | 2.795 | - | -
N#Cc1ccc(OC[C@]23COC[C@H]2CN(c2ncccn2)C3)nc1 | - | -15.63 | - | -
CNc1cc(N2CCCC2CNCc2ccccn2)ncn1 (centres unmarked) | -10.36 | 11.1 | 31.97 | -30.34
CC(Cn1cccn1)NCc1csc(-c2ncccn2)n1 (centres unmarked) | 8.369 | -17.57 | 5.025 | -18.16
O=C(O)C(F)(F)F.[H][C@@]12CCN(c3ccncn3)C[C@@]1([H])[C@H](C(=O)NCc1ccco1)CCO2 | 5.128 | - | -10.36 | -10.34
CC(NC(=O)Nc1cc(F)ccc1N1CCCCC1)c1nncn1C (centres unmarked) | 0.05744 | 2.323 | -7.365 | -36.5
CC[C@@]1(O)CCN(C(=O)c2cccc3cc(C)oc23)C[C@H]1O | -16.98 | -5.164 | -60.47 | -
CCC[C@H]1CN(C(=O)Cn2ccccc2=O)C[C@@H]1NS(C)(=O)=O | 1.04 | -0.6769 | -10.5 | -40.5
Cc1ccn(-c2ccccc2NCc2ccccn2)n1 | -1.752 | 1.484 | 25.38 | -40.28
CC(C)(C)C(=O)NCC(=O)NCC1CCCS1 (centres unmarked) | -2.84 | -0.1971 | -17.54 | -22.76
C[C@@H]1CN(C(=O)c2ccccc2F)C[C@]12CCN(CCN(C)C)C2=O | 9.973 | -0.7876 | 7.023 | -4.029
CC(=O)Nc1nc(CN(C)CC2CCCN2c2cccnn2)cs1 (centres unmarked) | -1.876 | -2.892 | 23.32 | -37.13
CN(C)CC(=O)N1Cc2nnn(C)c2C(COCc2ccccn2)C1 (centres unmarked) | - | -6.79 | - | -
CC(=O)Nc1nc(C2CCCN(C(=O)CN(C)C)C2)cs1 (centres unmarked) | 2.387 | -15.38 | 12.33 | -30.3
O=C(Cc1cccs1)N1CC[C@H]2[C@@H]1CCC(=O)N2c1cccnc1 | - | 19.16 | - | -
COc1ccccc1CC(C)CC(=O)NC(C)C (centres unmarked) | 18.42 | -6.428 | 59.88 | -5.103
CS(=O)(=O)N1CCCC12CCCN(C(=O)c1ccc[nH]1)C2 (centres unmarked) | -4.211 | -6.52 | -45.49 | -124.8
Cc1nnc(CN2CCCC2c2ccc3c(c2)OCCCO3)n1C (centres unmarked) | 12.61 | -13.46 | 17.9 | -37.69
CS(=O)(=O)N1CCOCC2(CCN(Cc3ccoc3)CC2)C1 | - | -2.387 | - | -
CN(C)C(=O)NCC1CC2(CO1)CN(c1nncs1)C2 (centres unmarked) | -10.84 | -11.37 | 17.65 | -66.49
COCCN1CCCC(O)(CN2CCN(c3ccncc3C)CC2)C1=O (centres unmarked) | 8.021 | -4.23 | 5.674 | -37.11
[H][C@@]12CC(=O)N(CC)[C@@]1([H])CCN2S(=O)(=O)c1ccc(OC)cc1 | -13.65 | - | 3.795 | -7.941
CCN1CCN(Cc2nc(CCc3ccccc3)n[nH]2)CC1 | 8.434 | -10.23 | 9.922 | -28.5
Cc1nc(C2CCCN(C(=O)c3sccc3C3CC3)C2)no1 (centres unmarked) | -8.607 | -2.863 | 21.8 | -25.28
COC(=O)c1cccc(CNC(=O)NCCC(F)(F)F)c1 | 0.1264 | -12.85 | 15.63 | -32.65
CC(C)c1nc2cc(NC(=O)c3n[nH]c4c3CCC4)ccc2n1C | -1.797 | -8.327 | 11.94 | 7.153
COC[C@@]12CC[C@@H](N3CCOCC3)C[C@H]1CCN(c1ncccc1Cl)C2 | - | -3.5 | - | -
CC(CO)NC(=O)c1ccc(NCc2ccc(F)c(F)c2)cc1 (centres unmarked) | 8.014 | -7.362 | 34.7 | 74.6

The first 4 entries again:

Compound,Toxoplasma,ClpP1P2,Leishmania in macrophages,T. brucei
CN1CCOC(CNCc2cnc(C(C)(C)C)s2)C1 (centres unmarked),8.663,-6.945,-3.893,-8.388
Cc1csc(CCNC(=O)N2CCC(n3cccc3)CC2)n1,2.41,-2.607,-0.7668,0.7043
c1cnc(N2CCCC(c3n[nH]c4ncccc34)C2)nc1 (centres unmarked),-10.54,-16.4,8.255 & 8.459,-13.3
Cc1cc(CC(C)NC(=O)Cc2cc(F)ccc2C)[nH]n1 (centres unmarked),-8.849,-3.396,-10.86,-40.12

Data taken from ChEMBL document CHEMBL3988442, “University of Dundee, Small-Polar-MMV Screening Library” (2021).